Reference: US20220193191A1 (AstraZeneca / MedImmune, published 2022)

Experiments:
[1] = target: T1, human interleukin-4 receptor alpha chain (IL-4Rα) (human, UniProt P24394 26-825); test: cell-based or functional assay
[2] = target: T1, human interleukin-4 receptor alpha …; test: cell-based or functional assay; remark: listed apart in the source

IC50 of ex vivo inhibition of IL-4 stimulated STAT6 phosphorylation in CD3+ T cells (PK/PD analysis, whole blood of healthy subjects after single inhaled doses, 10 ng/ml human IL-4 for 15 minutes) [1]: 0.35 nM | Eotaxin-3 IC50 (nM): inhibition of IL-4 induced eotaxin-3 release, human whole blood in vitro, 8 ng/mL IL-4 for 24 hours, ELISA [2]: 2.1 nM | MDC IC50 (nM): inhibition of IL-4 induced MDC release, human whole blood in vitro, 8 ng/mL IL-4 for 24 hours, ELISA [2]: 2 nM | TARC IC50 (nM): inhibition of IL-4 induced TARC release, human whole blood in vitro, 8 ng/mL IL-4 for 24 hours, ELISA [2]: 1.3 nM | pSTAT IC50 (nM): inhibition of IL-4 stimulated STAT6 phosphorylation in CD3+ T cells, human whole blood in vitro, 8 ng/mL IL-4 for 15 minutes, FACS [2]: 1.3 nM
B1: PRS-060/AZD1402 (anti-IL-4 receptor alpha human tear lipocalin mutein) (designed binder)
chain: ASDEEIQDVSGTWYLKAMTVDSRCPRAVYNSVTPMTLTTLEGGNLEAKFTAQRKGRWQKYKLVLEKTDEPGKYTASGGRHVAYIIRSHVKDHYIFHSEGLCPGQPVPGVWLVGRDPKNNLEALEDFEKAAGARGLSTESILIPRQSETSSPGSD
